The values below come from PMC8336351.

Protein sequences, listed by entry. Tags and fused reporters are not part of them.
UniProt B2RWS6: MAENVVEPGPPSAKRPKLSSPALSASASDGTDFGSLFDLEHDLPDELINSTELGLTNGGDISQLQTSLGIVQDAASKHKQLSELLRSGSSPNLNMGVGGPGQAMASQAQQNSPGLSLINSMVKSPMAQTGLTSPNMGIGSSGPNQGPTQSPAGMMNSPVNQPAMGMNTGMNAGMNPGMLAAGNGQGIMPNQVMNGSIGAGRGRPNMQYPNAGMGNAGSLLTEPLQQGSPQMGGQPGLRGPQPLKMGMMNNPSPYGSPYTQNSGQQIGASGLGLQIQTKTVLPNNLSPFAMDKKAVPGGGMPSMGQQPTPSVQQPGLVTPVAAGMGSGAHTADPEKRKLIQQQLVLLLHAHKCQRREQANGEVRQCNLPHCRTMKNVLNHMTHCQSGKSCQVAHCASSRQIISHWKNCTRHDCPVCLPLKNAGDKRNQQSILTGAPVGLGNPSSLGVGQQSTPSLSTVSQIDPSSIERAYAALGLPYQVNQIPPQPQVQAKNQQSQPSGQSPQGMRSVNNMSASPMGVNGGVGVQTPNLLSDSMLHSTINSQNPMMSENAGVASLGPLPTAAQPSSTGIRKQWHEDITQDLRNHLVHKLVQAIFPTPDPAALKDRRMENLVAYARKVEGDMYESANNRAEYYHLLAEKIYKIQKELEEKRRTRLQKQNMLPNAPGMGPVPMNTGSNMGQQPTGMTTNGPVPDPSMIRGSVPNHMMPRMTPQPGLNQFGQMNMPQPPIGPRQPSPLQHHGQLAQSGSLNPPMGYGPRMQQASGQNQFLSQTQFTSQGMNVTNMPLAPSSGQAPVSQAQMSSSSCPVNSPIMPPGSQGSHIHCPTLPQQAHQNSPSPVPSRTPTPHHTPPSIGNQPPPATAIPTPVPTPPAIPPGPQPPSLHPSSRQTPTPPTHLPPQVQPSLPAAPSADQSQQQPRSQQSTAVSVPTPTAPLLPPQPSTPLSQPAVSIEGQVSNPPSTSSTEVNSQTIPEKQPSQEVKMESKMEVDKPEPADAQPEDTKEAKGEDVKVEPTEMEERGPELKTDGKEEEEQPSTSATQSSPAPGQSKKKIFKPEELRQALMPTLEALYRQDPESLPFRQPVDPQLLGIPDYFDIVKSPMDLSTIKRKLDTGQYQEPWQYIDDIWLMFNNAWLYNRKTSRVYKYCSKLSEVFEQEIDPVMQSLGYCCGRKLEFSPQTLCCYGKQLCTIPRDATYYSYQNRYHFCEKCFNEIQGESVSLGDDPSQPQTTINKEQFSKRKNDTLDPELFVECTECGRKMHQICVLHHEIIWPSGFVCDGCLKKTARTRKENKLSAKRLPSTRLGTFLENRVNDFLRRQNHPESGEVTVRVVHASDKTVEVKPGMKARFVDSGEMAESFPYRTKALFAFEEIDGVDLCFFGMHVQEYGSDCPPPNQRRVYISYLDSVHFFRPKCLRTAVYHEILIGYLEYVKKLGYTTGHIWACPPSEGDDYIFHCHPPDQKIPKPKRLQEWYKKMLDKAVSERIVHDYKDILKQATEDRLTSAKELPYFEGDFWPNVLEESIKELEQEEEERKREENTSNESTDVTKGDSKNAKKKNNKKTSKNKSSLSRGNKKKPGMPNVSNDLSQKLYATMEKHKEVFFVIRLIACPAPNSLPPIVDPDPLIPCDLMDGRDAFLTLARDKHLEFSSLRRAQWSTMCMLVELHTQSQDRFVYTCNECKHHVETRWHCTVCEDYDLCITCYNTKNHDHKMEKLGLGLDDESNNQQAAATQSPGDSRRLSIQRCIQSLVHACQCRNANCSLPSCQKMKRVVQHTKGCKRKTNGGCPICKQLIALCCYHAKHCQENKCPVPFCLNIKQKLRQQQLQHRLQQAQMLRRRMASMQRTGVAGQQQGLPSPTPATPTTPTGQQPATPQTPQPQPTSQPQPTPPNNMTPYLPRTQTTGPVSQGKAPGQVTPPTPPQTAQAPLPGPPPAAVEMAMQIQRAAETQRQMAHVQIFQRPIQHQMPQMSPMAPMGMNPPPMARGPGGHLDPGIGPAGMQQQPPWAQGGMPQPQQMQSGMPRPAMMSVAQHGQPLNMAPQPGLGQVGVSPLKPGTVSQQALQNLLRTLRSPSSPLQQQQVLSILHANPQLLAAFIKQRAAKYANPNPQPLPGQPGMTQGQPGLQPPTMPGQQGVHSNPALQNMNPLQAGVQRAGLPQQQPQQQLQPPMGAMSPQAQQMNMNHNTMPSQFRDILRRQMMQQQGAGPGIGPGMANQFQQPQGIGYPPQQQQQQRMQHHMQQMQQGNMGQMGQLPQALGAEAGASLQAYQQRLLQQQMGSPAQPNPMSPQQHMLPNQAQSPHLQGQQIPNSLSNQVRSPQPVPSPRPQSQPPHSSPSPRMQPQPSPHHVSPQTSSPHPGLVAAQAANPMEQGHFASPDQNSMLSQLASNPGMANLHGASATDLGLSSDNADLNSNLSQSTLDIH

Holding throughout (assay): co-IP; liver tissue lysates of C57BL/6 J mice (normal diet, high fat & sucrose diet model, and groups treated with BER + CUR, LBC, LSDBC or DEAE-DEX@LSDBC); supernatant with antibody (anti-TXNIP or anti-p300, 1 μg/100 μL) at 4 °C overnight, protein A/G-agarose beads 4 h at 4 °C, washed 4 times with lysis buffer; western blot
Assay [1] has as its target acetyltransferase p300 (mouse (endogenous in C57BL/6 J mouse liver)), B2RWS6. Conditions: remark: other sources report otherwise.
Assay [2] addresses T1, thioredoxin-interacting protein (mouse (endogenous in C57BL/6 J mouse liver)) (UniProt Q8BG60).
T1 sequence: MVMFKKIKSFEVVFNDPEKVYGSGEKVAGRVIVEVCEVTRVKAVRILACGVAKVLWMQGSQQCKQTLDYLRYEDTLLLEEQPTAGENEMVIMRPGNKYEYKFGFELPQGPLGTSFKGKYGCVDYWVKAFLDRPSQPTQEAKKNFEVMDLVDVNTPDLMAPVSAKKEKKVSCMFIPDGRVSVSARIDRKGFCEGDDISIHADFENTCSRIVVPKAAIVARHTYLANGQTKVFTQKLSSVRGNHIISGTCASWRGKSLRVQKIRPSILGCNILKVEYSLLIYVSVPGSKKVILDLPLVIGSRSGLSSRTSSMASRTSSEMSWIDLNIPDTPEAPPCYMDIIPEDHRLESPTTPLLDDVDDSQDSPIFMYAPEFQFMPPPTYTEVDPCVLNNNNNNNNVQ

Assay [3] addresses acetyltransferase p300 (mouse (endogenous in C57BL/6 J mouse liver)) (UniProt B2RWS6).

No constants are given. Whether binding was seen depends on the method and setting. Binding seen in cells or lysates may run through a third protein. Some entries that bind do so weakly or less than the wild type.

B1: p65, a subunit of NF-κB, Q04207 1-549 (protein)
chain: MDDLFPLIFPSEPAQASGPYVEIIEQPKQRGMRFRYKCEGRSAGSIPGERSTDTTKTHPTIKINGYTGPGTVRISLVTKDPPHRPHPHELVGKDCRDGYYEADLCPDRSIHSFQNLGIQCVKKRDLEQAISQRIQTNNNPFHVPIEEQRGDYDLNAVRLCFQVTVRDPAGRPLLLTPVLSHPIFDNRAPNTAELKICRVNRNSGSCLGGDEIFLLCDKVQKEDIEVYFTGPGWEARGSFSQADVHRQVAIVFRTPPYADPSLQAPVRVSMQLRRPSDRELSEPMEFQYLPDTDDRHRIEEKRKRTYETFKSIMKKSPFNGPTEPRPPTRRIAVPTRNSTSVPKPAPQPYTFPASLSTINFDEFSPMLLPSGQISNQALALAPSSAPVLAQTMVPSSAMVPLAQPPAPAPVLTPGPPQSLSAPVPKSTQAGEGTLSEALLHLQFDADEDLGALLGNSTDPGVFTDLASVDNSEFQQLLNQGVSMSHSTAEPMLMEYPEAITRLVTGSQRPPDPAPTPLGTSGLPNGLSGDEDFSSIADMDFSALLSQISS
Turning to B1, the binding result in assay [1] is recorded as “binds”.

B2: thioredoxin (protein, UniProt P10639 1-105)
chain: MVKLIESKEAFQEALAAAGDKLVVVDFSATWCGPCKMIKPFFHSLCDKYSNVVFLEVDVDDCQDVAADCEVKCMPTFQFYKKGQKVGEFSGANKEKLEASITEYA
For the molecule B2, in assay [2], the binding result was “binds”.

B3: Nuclear factor erythroid-2 related factor 2 (protein, UniProt Q60795 1-597)
chain: MMDLELPPPGLQSQQDMDLIDILWRQDIDLGVSREVFDFSQRQKDYELEKQKKLEKERQEQLQKEQEKAFFAQFQLDEETGEFLPIQPAQHIQTDTSGSASYSQVAHIPKQDALYFEDCMQLLAETFPFVDDHESLALDIPSHAESSVFTAPHQAQSLNSSLEAAMTDLSSIEQDMEQVWQELFSIPELQCLNTENKQLADTTAVPSPEATLTEMDSNYHFYSSISSLEKEVGNCGPHFLHGFEDSFSSILSTDDASQLTSLDSNPTLNTDFGDEFYSAFIAEPSDGGSMPSSAAISQSLSELLDGTIEGCDLSLCKAFNPKHAEGTMEFNDSDSGISLNTSPSRASPEHSVESSIYGDPPPGFSDSEMEELDSAPGSVKQNGPKAQPAHSPGDTVQPLSPAQGHSAPMRESQCENTTKKEVPVSPGHQKAPFTKDKHSSRLEAHLTRDELRAKALHIPFPVEKIINLPVDDFNEMMSKEQFNEAQLALIRDIRRRGKNKVAAQNCRKRKLENIVELEQDLGHLKDEREKLLREKGENDRNLHLLKRRLSTLYLEVFSMLRDEDGKPYSPSEYSLQQTRDGNVFLVPKSKKPDTKKN
As to B3, the binding result in assay [3] was “binds”.
